Measurements: the supplement of paper PMC10849652
Some of the results follow.

Chains of the proteins cited; added tags and fusions are not shown. Lines headed by an entry give the natural chain unless they say otherwise; changes in a name come on top.
UniProt O60942: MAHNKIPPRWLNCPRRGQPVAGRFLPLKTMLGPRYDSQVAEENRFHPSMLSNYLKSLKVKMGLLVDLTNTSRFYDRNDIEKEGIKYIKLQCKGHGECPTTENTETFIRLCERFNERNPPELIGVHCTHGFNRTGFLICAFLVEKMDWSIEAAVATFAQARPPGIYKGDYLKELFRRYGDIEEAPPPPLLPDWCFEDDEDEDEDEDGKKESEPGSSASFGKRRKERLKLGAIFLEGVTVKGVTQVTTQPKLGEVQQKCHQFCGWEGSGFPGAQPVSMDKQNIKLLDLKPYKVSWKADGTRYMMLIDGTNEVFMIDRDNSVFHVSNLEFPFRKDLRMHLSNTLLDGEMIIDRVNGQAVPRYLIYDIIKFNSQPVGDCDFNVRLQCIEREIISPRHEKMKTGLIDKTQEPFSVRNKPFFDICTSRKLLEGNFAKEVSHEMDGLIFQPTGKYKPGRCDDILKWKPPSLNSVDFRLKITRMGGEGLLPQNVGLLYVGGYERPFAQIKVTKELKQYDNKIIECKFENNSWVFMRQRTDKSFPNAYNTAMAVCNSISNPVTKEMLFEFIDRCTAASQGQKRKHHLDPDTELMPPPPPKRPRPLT
UniProt Q8TA86: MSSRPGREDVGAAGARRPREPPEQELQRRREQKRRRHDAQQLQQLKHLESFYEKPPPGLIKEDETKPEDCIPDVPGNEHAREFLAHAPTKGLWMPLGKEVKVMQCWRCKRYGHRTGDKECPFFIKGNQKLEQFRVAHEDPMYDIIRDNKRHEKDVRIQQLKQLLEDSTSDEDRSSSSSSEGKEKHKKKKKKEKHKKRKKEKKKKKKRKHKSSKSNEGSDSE
UniProt Q96CM3: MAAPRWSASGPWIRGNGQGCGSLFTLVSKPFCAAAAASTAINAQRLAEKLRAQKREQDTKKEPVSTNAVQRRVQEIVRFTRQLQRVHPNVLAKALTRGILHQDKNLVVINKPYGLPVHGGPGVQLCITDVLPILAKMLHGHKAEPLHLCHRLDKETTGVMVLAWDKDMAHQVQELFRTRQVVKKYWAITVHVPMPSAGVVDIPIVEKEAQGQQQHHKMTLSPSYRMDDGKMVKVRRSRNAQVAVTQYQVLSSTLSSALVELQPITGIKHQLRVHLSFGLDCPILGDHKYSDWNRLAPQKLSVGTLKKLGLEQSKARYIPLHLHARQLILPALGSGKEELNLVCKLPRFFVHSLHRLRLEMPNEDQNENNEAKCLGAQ
UniProt P60602: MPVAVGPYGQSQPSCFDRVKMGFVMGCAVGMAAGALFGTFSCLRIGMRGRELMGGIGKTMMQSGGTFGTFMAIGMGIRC
UniProt Q5VT52: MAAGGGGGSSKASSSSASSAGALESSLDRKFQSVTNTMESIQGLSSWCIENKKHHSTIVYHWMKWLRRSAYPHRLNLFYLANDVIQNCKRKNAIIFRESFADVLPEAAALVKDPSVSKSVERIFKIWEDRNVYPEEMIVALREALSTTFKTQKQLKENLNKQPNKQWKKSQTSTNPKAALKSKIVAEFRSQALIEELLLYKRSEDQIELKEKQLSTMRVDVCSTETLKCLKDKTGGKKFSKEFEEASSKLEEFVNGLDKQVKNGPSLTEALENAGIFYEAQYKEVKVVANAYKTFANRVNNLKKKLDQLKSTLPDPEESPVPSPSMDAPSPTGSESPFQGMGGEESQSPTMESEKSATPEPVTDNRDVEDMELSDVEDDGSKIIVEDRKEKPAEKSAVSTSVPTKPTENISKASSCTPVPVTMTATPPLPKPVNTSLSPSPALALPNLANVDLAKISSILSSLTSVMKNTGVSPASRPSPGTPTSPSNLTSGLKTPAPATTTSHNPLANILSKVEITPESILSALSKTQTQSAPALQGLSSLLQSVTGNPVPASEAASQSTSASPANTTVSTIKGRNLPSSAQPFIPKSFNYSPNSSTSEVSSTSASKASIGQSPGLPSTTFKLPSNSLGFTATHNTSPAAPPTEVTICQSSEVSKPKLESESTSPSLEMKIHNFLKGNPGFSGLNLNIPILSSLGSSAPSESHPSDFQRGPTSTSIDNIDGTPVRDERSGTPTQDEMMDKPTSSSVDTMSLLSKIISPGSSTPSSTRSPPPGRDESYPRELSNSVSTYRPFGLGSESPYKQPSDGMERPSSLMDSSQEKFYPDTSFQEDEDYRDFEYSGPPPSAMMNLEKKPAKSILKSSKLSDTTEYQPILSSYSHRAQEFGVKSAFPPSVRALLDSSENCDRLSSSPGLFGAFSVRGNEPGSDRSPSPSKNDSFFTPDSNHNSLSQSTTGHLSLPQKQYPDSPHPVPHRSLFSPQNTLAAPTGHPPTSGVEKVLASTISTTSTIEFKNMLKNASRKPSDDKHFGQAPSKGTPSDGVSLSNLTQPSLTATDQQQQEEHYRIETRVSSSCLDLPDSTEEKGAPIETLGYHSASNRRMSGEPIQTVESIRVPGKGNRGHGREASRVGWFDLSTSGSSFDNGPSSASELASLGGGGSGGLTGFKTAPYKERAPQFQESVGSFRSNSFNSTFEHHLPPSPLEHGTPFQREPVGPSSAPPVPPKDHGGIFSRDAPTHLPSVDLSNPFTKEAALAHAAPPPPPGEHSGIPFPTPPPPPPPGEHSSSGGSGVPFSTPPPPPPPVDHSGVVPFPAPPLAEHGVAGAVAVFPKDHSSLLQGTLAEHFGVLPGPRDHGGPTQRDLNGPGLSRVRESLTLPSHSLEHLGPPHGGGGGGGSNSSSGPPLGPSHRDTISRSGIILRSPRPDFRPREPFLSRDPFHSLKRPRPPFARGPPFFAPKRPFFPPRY
UniProt Q9UBS0: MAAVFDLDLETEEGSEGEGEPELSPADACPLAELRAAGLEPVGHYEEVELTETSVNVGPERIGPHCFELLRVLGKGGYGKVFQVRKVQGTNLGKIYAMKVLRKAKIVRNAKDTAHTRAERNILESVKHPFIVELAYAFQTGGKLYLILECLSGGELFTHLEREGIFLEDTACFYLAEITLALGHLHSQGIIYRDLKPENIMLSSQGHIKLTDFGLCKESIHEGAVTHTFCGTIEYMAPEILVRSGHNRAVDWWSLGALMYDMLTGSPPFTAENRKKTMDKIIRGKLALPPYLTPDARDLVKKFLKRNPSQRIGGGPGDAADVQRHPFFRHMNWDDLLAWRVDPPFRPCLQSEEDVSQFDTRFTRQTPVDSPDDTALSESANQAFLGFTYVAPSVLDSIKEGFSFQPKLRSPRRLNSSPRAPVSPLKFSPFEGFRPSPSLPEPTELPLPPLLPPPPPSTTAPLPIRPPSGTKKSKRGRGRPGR
UniProt Q9NYV6: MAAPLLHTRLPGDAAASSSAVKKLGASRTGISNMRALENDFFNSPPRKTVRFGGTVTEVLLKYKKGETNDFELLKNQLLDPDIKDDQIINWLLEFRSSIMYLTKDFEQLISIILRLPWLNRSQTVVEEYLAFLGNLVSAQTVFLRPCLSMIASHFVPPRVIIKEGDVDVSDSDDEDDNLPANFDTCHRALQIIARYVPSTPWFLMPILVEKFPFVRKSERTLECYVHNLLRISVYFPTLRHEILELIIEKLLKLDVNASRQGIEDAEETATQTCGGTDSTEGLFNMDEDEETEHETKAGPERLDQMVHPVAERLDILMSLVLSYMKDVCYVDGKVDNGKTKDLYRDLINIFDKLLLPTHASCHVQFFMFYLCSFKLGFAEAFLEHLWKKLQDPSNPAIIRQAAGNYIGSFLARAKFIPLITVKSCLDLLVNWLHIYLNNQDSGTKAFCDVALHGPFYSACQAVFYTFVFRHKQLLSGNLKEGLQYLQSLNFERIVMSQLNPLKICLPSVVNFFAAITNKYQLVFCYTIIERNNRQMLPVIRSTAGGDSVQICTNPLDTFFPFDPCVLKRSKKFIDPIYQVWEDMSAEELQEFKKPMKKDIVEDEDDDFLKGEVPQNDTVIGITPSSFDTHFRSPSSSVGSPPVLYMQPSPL
UniProt Q96EP0: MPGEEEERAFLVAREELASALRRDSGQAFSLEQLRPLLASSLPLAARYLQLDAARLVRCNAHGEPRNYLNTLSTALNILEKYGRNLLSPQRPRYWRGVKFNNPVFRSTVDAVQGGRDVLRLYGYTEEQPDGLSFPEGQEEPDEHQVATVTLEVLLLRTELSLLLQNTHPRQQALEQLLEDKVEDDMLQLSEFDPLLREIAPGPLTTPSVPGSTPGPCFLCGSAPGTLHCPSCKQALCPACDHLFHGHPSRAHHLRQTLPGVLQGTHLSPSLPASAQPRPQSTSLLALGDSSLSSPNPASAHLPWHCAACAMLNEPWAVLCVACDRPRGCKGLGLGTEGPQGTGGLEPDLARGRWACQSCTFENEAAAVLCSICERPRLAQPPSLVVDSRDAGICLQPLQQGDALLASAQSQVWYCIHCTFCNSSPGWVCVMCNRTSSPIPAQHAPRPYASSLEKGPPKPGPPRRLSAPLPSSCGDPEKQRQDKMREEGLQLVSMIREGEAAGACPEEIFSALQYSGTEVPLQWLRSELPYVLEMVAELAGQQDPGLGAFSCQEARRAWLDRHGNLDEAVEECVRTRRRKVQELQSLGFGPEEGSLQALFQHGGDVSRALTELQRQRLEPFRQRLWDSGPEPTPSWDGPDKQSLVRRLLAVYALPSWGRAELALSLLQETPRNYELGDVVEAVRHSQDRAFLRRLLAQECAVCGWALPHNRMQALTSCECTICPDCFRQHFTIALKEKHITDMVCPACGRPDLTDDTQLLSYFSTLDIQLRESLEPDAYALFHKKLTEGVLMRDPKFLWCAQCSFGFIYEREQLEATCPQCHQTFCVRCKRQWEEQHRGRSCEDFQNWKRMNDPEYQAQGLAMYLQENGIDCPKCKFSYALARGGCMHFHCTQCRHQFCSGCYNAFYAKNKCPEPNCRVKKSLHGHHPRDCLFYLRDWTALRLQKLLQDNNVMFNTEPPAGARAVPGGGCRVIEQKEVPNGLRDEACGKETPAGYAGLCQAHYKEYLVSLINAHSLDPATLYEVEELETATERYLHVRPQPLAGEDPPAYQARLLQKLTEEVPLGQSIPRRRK
UniProt O75582, whole entry, looked up: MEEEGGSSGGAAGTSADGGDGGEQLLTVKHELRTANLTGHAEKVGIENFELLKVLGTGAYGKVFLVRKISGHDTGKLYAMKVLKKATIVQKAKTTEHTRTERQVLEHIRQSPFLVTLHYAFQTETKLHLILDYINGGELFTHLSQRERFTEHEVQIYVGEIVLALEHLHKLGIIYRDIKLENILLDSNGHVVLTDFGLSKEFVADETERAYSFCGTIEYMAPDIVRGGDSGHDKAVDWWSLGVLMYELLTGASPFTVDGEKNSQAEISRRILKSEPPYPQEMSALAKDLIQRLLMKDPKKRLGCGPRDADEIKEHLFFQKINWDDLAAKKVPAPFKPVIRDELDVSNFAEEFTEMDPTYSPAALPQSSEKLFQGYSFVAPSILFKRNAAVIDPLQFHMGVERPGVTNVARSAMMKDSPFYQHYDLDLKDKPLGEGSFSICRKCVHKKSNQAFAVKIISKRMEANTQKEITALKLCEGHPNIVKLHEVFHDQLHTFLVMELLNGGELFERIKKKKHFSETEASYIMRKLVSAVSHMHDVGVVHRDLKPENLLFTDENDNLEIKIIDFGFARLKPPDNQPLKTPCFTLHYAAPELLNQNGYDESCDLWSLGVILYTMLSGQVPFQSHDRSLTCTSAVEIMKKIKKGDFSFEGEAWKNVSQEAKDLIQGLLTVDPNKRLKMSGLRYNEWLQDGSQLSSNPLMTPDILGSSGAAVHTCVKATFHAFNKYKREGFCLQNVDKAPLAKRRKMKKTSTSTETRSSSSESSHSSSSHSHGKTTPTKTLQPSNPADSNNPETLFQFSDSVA
UniProt Q5M7Z0: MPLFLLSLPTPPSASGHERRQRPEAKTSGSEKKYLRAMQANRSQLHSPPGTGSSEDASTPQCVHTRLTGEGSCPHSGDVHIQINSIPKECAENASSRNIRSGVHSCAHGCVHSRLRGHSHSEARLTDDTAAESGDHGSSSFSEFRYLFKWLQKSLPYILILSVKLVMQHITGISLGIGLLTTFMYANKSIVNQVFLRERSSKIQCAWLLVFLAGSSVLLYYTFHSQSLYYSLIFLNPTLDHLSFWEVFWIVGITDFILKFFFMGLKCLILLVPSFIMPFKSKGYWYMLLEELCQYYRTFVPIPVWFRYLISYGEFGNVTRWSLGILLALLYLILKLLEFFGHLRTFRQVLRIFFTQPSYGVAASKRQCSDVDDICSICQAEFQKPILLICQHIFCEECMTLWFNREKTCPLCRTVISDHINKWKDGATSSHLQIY
UniProt Q96P16: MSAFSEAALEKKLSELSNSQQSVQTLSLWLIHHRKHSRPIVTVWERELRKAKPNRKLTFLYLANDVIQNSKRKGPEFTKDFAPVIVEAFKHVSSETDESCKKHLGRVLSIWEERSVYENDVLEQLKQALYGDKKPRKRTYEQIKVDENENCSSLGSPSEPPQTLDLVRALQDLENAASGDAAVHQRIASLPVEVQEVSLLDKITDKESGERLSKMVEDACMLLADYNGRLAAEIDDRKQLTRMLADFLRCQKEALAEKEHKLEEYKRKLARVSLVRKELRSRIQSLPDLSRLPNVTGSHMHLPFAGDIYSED

How the values were obtained:
Test in all cases: log2 fold change, soluble protein after heating vs DMSO (PISA); higher = thermal stabilisation; K562 cells, 10 uM, 30 min; active = over 0.2 and 3.5 SD of the protein, either way, in both replicates (recomputed)
[1] = compound: CC1=C(C=C(C=C1)NC(=O)C2=CC(=CC=C2)C(C)(C)C#N)NC3=CC4=C(C=C3)N=CN(C4=O)C
Outline: (§1)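 K562 cells at 2×10^6 cells/mL were treated with 10 μM compound for 30 min. Aliquots were heated for 3 min across 48°C-58°C, pooled, and extracted in PBS with 0.5% NP-40 at 4°C; soluble protein was the supernatant after 21,000xg for 90 min. Soluble protein was quantified by TMTpro 16plex LC-MS/MS with channel sums equalised, and reported as log2 fold change in thermal stability against DMSO controls, with values from duplicates.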

[2] = compound: CC1=C(C=C(C=C1)NC(=O)C2=CC(=CC=C2)N(C)C)NC(=O)C3=CC=C(C=C3)O
Outline: as §1

[3] = compound: CC1=CC=C(C=C1)SC2=C3C=C(SC3=CN=C2)C(=O)N
Outline: as §1

[4] = compound: CC1=NC(=CC=C1)C2=C(N=C(N2)C(C)(C)C)C3=CC4=NC=CN=C4C=C3
Outline: as §1

Nexturastat A = compound: CCCCN(Cc1ccc(C(=O)NO)cc1)C(=O)Nc1ccccc1 [Nexturastat A]
Outline: as §1

vemurafenib = compound: CCCS(=O)(=O)Nc1ccc(F)c(C(=O)c2c[nH]c3ncc(-c4ccc(Cl)cc4)cc23)c1F [vemurafenib]
Outline: as §1

[5] = compound: CCCS(=O)(=O)Nc1ccc(F)c(C(=O)c2c[nH]c3ncc(Cl)cc23)c1F
Outline: as §1

[6] = compound: CCCc1cc(C)[nH]c(=O)c1CNC(=O)c1cc(-c2ccnc(N3CCN(C)CC3)c2)cc2c1cnn2C(C)C
Outline: as §1

givinostat = compound: CCN(CC)Cc1ccc2cc(COC(=O)Nc3ccc(C(=O)NO)cc3)ccc2c1 [givinostat]
Outline: as §1

barasertib = compound: CCN(CCCOc1ccc2c(Nc3cc(CC(=O)Nc4cccc(F)c4)[nH]n3)ncnc2c1)CCOP(=O)(O)O [barasertib]
Outline: as §1

Measured: log2 fold change

RPL34 (UniProt P49207)
inactive: [1] 0.013 | [2] -0.004 | [3] -0.119 | [4] -0.219 | Nexturastat A 0.331 | vemurafenib -0.239 | [5] -0.123 | [6] 0.212 | givinostat 0.117 | barasertib -0.236

RPS8 (UniProt P62241)
inactive: [1] -0.011 | [2] -0.024 | [3] -0.094 | [4] -0.045 | Nexturastat A 0.252 | vemurafenib -0.144 | [5] -0.069 | [6] 0.121 | givinostat 0.05 | barasertib -0.12

RPL9 (UniProt P32969)
inactive: [1] 0.022 | [2] 0 | [3] 0 | [4] -0.214 | Nexturastat A 0.397 | vemurafenib -0.264 | [5] -0.111 | [6] 0.257 | givinostat 0.042 | barasertib -0.199

RPS19 (UniProt P39019)
inactive: [1] 0.008 | [2] 0.007 | [3] -0.054 | [4] -0.009 | Nexturastat A 0.121 | vemurafenib -0.07 | [5] -0.066 | [6] -0.039 | givinostat 0.013 | barasertib -0.083

RPS23 (UniProt P62266)
inactive: [1] 0.05 | [2] 0.051 | [3] -0.086 | [4] -0.108 | Nexturastat A 0.267 | vemurafenib -0.186 | [5] -0.065 | [6] 0.113 | givinostat -0.022 | barasertib -0.121

RNGTT (UniProt O60942)
inactive: [1] 0.069 | [2] -0.064 | [3] 0.087 | [4] 0.026 | Nexturastat A -0.132 | vemurafenib 0.031 | [5] 0.115 | [6] 0.043 | givinostat 0.006 | barasertib 0.07

RPTOR (UniProt Q8N122)
inactive: [1] 0.009 | [2] 0.019 | [3] 0.027 | [4] 0.025 | Nexturastat A -0.018 | vemurafenib 0.017 | [5] 0.09 | [6] 0.012 | givinostat -0.007 | barasertib -0.007

RPL36A (UniProt P83881)
inactive: [1] -0.079 | [2] -0.017 | [3] -0.102 | [4] -0.213 | Nexturastat A 0.342 | vemurafenib -0.141 | [5] -0.119 | [6] 0.12 | givinostat 0.051 | barasertib -0.139

RPF2 (UniProt Q9H7B2)
inactive: givinostat 0.478

RPL10 (UniProt F8W7C6)
inactive: [1] 0.098 | [3] 0.044 | Nexturastat A 0.109 | vemurafenib 0.023 | [5] 0.167 | [6] 0.132 | givinostat 0.079 | barasertib -0.079

RPS7, A0A2R8Y623
inactive: [1] -0.048 | [2] 0.256 | [4] -0.564 | vemurafenib 0.363 | [6] 0.124 | givinostat -0.027 | barasertib 0.608

ROGDI (UniProt Q9GZN7)
inactive: [2] 0.152

RPL37 (UniProt P61927)
inactive: [1] 0.016 | [2] 0.007 | [3] -0.28 | [4] -0.122 | vemurafenib -0.113 | [5] -0.312 | [6] 0.093 | givinostat 0.029 | barasertib -0.277

RPS19 (UniProt M0R2L9)
inactive: [3] -0.169 | [5] -0.98 | [6] 0.113

RP9 (UniProt Q8TA86)
inactive: [1] -0.057 | [2] 0.047 | [3] 0.044 | [4] -0.091 | Nexturastat A 0.155 | [5] -0.229 | [6] 0.039 | givinostat 0.024 | barasertib -0.158

RPGR (UniProt Q92834)
inactive: Nexturastat A -0.291

RPUSD4 (UniProt Q96CM3)
inactive: [1] 0.011 | [2] -0.153 | [3] 0.09 | Nexturastat A 0.389 | [5] -0.08 | [6] -0.052

ROMO1 (UniProt P60602)
inactive: [1] 0.087 | [2] -0.011 | [3] 0.005 | Nexturastat A -0.066 | [5] -0.017 | [6] -0.082 | givinostat -0.027 | barasertib -0.036

RPRD2 (UniProt Q5VT52)
inactive: [2] -0.011 | [3] -0.022 | [4] -0.059 | Nexturastat A 0.013 | vemurafenib 0.086 | [5] 0.197 | givinostat 0.103 | barasertib -0.23

RRP1 (UniProt P56182)
inactive: [2] -0.187 | [4] -0.084 | vemurafenib -0.029 | givinostat 0.282

RNF26 (UniProt Q9BY78)
inactive: [2] 0.012 | vemurafenib 0.281 | barasertib 0.124

RPUSD3 (UniProt Q6P087)
inactive: [3] -0.103 | [5] 0.079 | [6] -0.021

RPL22L1 (UniProt Q6P5R6)
inactive: [1] 0.065 | [4] -0.049 | Nexturastat A -0.029 | givinostat 0.283

RPE (UniProt Q96AT9)
inactive: [2] -0.152 | [3] 0.074 | [4] 0.079 | Nexturastat A -0.084 | vemurafenib 0.06 | [5] -0.019 | [6] 0.011 | givinostat -0.157 | barasertib 0.078

RNF34 isoform 2 (UniProt Q969K3)
inactive: [2] 0.062 | [3] 0.026 | [4] 0.025 | Nexturastat A -0.056 | vemurafenib -0.257 | [5] 0.089 | [6] -0.094 | givinostat 0.062 | barasertib 0.066

RPS6KB2 (UniProt Q9UBS0)
inactive: [4] -0.018 | Nexturastat A 0.205 | [6] 0.124 | givinostat -0.068

RNF41 (UniProt Q9H4P4)
inactive: barasertib -0.15

RPP30 (UniProt Q5VU11)
inactive: [2] 0.162 | [4] -0.031 | givinostat -0.115 | barasertib -0.114

RPL7L1 (UniProt Q6DKI1)
inactive: [2] 0.044 | [4] -0.044 | Nexturastat A 0.359 | vemurafenib -0.076 | barasertib -0.033

RRN3 (UniProt Q9NYV6)
inactive: [3] 0.12 | [4] 0.156 | Nexturastat A 0.281 | [5] 0.032 | givinostat 0.121

RPAP2 (UniProt Q8IXW5)
inactive: [1] -0.042 | [2] 0.005 | [4] -0.078 | Nexturastat A 0.207 | givinostat 0.059

RNF4 (UniProt P78317)
inactive: [1] 0.184 | [3] -0.128 | Nexturastat A 0.107 | [5] 0.1 | [6] 0.228 | givinostat 0.153 | barasertib 0.106

RPSA (UniProt F8WD59)
inactive: [6] 0.077

RNF31 (UniProt Q96EP0)
inactive: [1] 0.012 | Nexturastat A 0.098 | vemurafenib -0.062 | givinostat -0.004

Quoted from above (3 entries):
RPL7L1 (UniProt Q6DKI1)
inactive: [2] 0.044 | [4] -0.044 | Nexturastat A 0.359 | vemurafenib -0.076 | barasertib -0.033

RRN3 (UniProt Q9NYV6)
inactive: [3] 0.12 | [4] 0.156 | Nexturastat A 0.281 | [5] 0.032 | givinostat 0.121

RPAP2 (UniProt Q8IXW5)
inactive: [1] -0.042 | [2] 0.005 | [4] -0.078 | Nexturastat A 0.207 | givinostat 0.059

The listing continues.

RPS6KA5 (UniProt O75582)
inactive: [2] -0.039 | [3] 0.029 | [4] -0.017 | Nexturastat A 0.013 | [5] 0.121 | [6] 0.237 | givinostat 0.025

RNFT1 (UniProt Q5M7Z0)
inactive: [2] -0.135 | [3] 0.026 | Nexturastat A -0.045 | [5] 0.051 | [6] -0.147 | givinostat 0.221

ROS1 (UniProt P08922)
inactive: [1] -0.288 | [3] -0.076 | [4] -0.107 | [5] -0.164 | [6] -0.226 | givinostat 0.039 | barasertib 0.028

RPRD1A (UniProt Q96P16)
inactive: [1] -0.03 | [2] -0.049 | Nexturastat A 0.013 | vemurafenib 0.017 | givinostat 0.138

RPS3 (UniProt E9PJN9)
inactive: [2] 0.125

RNF40 (UniProt O75150)
inactive: [1] 0.52 | [2] -0.007 | vemurafenib -0.009 | [6] 0.13 | givinostat 0.38 | barasertib 0.089

RPLP0 (UniProt F8VWV4)
inactive: [1] 0.015 | [4] -0.064 | Nexturastat A 0.181
